Results: PubChem BioAssay AID256 (DTP/NCI, 2004)
The list is a part of this screen's results and no random one: it is rich in T/C values a quarter to a half above the control, in often repeated tests (any T/C) and in doses without a T/C. Further doses and runs are listed elsewhere. T/C: endpoint of the treated group in % of that of the vehicle group. Some entries give survivors of the animals treated and no T/C: the source holds a T/C of zero for them, seemingly a mark for toxic or unscored doses. Some survivor counts are full or nearly so, which does not show that the dose was tolerated: the source hardly ever lists a survival T/C far under the control, and the zero likely stands for such cases as well. Counts of survivors are from the toxicity check (mostly the fifth day) where no day follows; animals may have died later. Schedules are NCI's codes, taken here to give the interval after Q, in days (D) or hours (H), and the number of doses after X. Some molecules as drawn cover several salts, stereoisomers or complexes of the source; a dose is that of the sample tested. Where survival is the endpoint, this PubChem deposit counts one and a half times the control or more as active, and values a quarter to a half above the control carry no call in these data; other NCI protocols may use other cut-offs. Some entries hold several experiments; the values are given in rising order. Some schedules carry Z or #; the key to these is not given. Some T/C values are followed by the survivors on the day toxicity was checked, most often the fifth; without a count, all were alive then.

Test system: CD2F1 mice, L1210 leukemia ip, survival T/C
Assay: NCI In Vivo Anticancer Drug Screen. Data for tumor model L1210 Leukemia (intraperitoneal) in CD2F1 (CDF1) mice
Details: higher T/C = longer survival
In short: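 Transplantable tumor in mice; compound-treated vs vehicle-treated groups. Read-out = treated/control ratio of the measured endpoint.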

[1] = T/C endpoint: mean survival time, dose: 100.0 mg/kg/injection, schedule: Q01DX009 (ip), vehicle: saline with Tween-80
[2] = T/C endpoint: mean survival time, dose: 200.0 mg/kg/injection, schedule: Q01DX009 (ip), vehicle: saline with Tween-80
[3] = T/C endpoint: mean survival time, dose: 400.0 mg/kg/injection, schedule: Q01DX009 (ip), vehicle: saline with Tween-80
[4] = T/C endpoint: mean survival time, dose: 100.0 mg/kg/injection, schedule: Q01DX001 (ip), vehicle: saline
[5] = T/C endpoint: mean survival time, dose: 200.0 mg/kg/injection, schedule: Q01DX001 (ip), vehicle: saline
[6] = T/C endpoint: mean survival time, dose: 400.0 mg/kg/injection, schedule: Q01DX001 (ip), vehicle: saline
[7] = T/C endpoint: mean survival time, dose: 50.0 mg/kg/injection, schedule: Q01DX009 (ip), vehicle: saline with Tween-80
[8] = T/C endpoint: mean survival time, dose: 200.0 mg/kg/injection, schedule: Q04DX003 (ip), vehicle: saline with Tween-80
[9] = T/C endpoint: mean survival time, dose: 50.0 mg/kg/injection, schedule: Q04DX003 (ip), vehicle: saline with Tween-80
[10] = T/C endpoint: mean survival time, dose: 400.0 mg/kg/injection, schedule: Q04DX003 (ip), vehicle: saline with Tween-80
[11] = T/C endpoint: mean survival time, dose: 100.0 mg/kg/injection, schedule: Q04DX003 (ip), vehicle: saline with Tween-80
[12] = T/C endpoint: mean survival time, dose: 400.0 mg/kg/injection, schedule: Q04DX002 (ip), vehicle: saline with Tween-80
[13] = T/C endpoint: mean survival time, dose: 400.0 mg/kg/injection, schedule: Q04DX003 (ip), vehicle: saline

## CC1=CC(=O)C(C(=O)CC(O)(C(F)(F)F)C(F)(F)F)C(=O)O1 (stereo not given)
[1]
  survivor count: 4 of 6
[2]
  survivor count: 4 of 6
[3]
  survivor count: 3 of 6

## CC[N+](C)(CC)CCOC(C)=O
[4]
  survivor count: 0 of 3
[5]
  survivor count: 0 of 3
[6]
  survivor count: 0 of 3

## O/N=C1\CN2CCC1CC2
T/C endpoint: mean survival time, dose: 200.0 mg/kg/injection, schedule: Q01DX001 (ip), vehicle: saline with Tween-80
  survivor count: 2 of 6
T/C endpoint: mean survival time, dose: 400.0 mg/kg/injection, schedule: Q01DX001 (ip), vehicle: saline with Tween-80
  survivor count: 0 of 6

## COC(=O)C1CC[N-]CC1.COC(=O)C1CC[N-]CC1.[Cl][Pt+2][Cl]
[3]
  survivor count: 1 of 6

## Nc1cc(OCc2ccccc2)c(N)c(N)n1
T/C endpoint: mean survival time, dose: 25.0 mg/kg/injection, schedule: Q01DX005 (ip), vehicle: water
  survivor count: 1 of 3
T/C endpoint: mean survival time, dose: 50.0 mg/kg/injection, schedule: Q01DX005 (ip), vehicle: water
  survivor count: 0 of 3
T/C endpoint: mean survival time, dose: 100.0 mg/kg/injection, schedule: Q01DX005 (ip), vehicle: water
  survivor count: 0 of 3
T/C endpoint: mean survival time, dose: 200.0 mg/kg/injection, schedule: Q01DX005 (ip), vehicle: water
  survivor count: 0 of 3
T/C endpoint: mean survival time, dose: 400.0 mg/kg/injection, schedule: Q01DX005 (ip), vehicle: water
  survivor count: 0 of 3

## O=C(O)C[N-]c1ccccc1.O=C(O)C[N-]c1ccccc1.[Ni+2]
[7]
  survivor count: 4 of 6
[1]
  survivor count: 0 of 6
[8]
  survivor count: 3 of 6

## COc1cccc(N2CCN(CC(O)COc3ccc(N)cc3)CC2)c1 (stereo not given)
T/C endpoint: mean survival time, dose: 100.0 mg/kg/injection, schedule: Q04DX002 (ip), vehicle: other
  survivor count: 0 of 3
T/C endpoint: mean survival time, dose: 200.0 mg/kg/injection, schedule: Q04DX002 (ip), vehicle: other
  survivor count: 0 of 3
T/C endpoint: mean survival time, dose: 400.0 mg/kg/injection, schedule: Q04DX002 (ip), vehicle: other
  survivor count: 0 of 3

## CCNC(=O)C(C)Br (stereo not given)
[6]
  survivor count: 2 of 4

## Cc1ccc(N)cc1 (tested in a mixture with another compound)
[9]
  T/C: 129 % of control
[10]
  survivor count: 3 of 3

## Cc1scc[n+]1Cc1ccccc1[N+](=O)[O-]
[4]
  survivor count: 2 of 6
[5]
  survivor count: 0 of 6
[6]
  survivor count: 0 of 6

## Cc1cc(Cl)ccc1NC(=O)N1CCCC(C)C1 (stereo not given)
[7]
  survivor count: 3 of 3
[1]
  survivor count: 3 of 3
[2]
  survivor count: 3 of 3

## CC1(CNC(=O)C(=O)NCC2(C)CO2)CO1 (stereo not given)
T/C endpoint: mean survival time, dose: 10.0 mg/kg/injection, schedule: Q01DX010 (ip), vehicle: saline
  T/C: 136 % of control
T/C endpoint: mean survival time, dose: 44.0 mg/kg/injection, schedule: Q01DX Z (ip), vehicle: saline
  T/C: 130 % of control
T/C endpoint: mean survival time, dose: 66.0 mg/kg/injection, schedule: Q01DX Z (ip), vehicle: saline
  T/C: 140 % of control
T/C endpoint: mean survival time, dose: 100.0 mg/kg/injection, schedule: Q01DX Z (ip), vehicle: saline
  T/C: 148 % of control
T/C endpoint: mean survival time, dose: 338.0 mg/kg/injection, schedule: Q01DX010 (ip), vehicle: saline
  survivor count: 0 of 6

## COc1ccc(C(O)(c2ccccc2)C(OC(C)=O)c2ccccc2)cc1 (stereo not given)
[11]
  survivor count: 6 of 6
[8]
  survivor count: 6 of 6
[10]
  survivor count: 6 of 6

## c1nc(Sc2ncnc3nc[nH]c23)c2[nH]cnc2n1
T/C endpoint: mean survival time, dose: 150.0 mg/kg/injection, schedule: Q01DX009 (ip), vehicle: saline with Tween-80
  T/C: 138 % of control

## CCOC(=O)c1ccc(OC(=O)Nc2ccc(Cl)cc2)cc1
[10]
  survivor count: 6 of 6

## CN(C)Cc1[c-]c(CN(C)C)ccc1.[Cl][Pt]
T/C endpoint: median survival time, dose: 6.25 mg/kg/injection, schedule: Q04DX003 (ip), vehicle: saline
  survivor count: 6 of 6
T/C endpoint: median survival time, dose: 100.0 mg/kg/injection, schedule: Q04DX003 (ip), vehicle: saline
  survivor count: 4 of 6
T/C endpoint: median survival time, dose: 200.0 mg/kg/injection, schedule: Q04DX003 (ip), vehicle: saline
  survivor count: 0 of 6

## Cn1c(=O)c2c(nc(Cl)n2Cc2ccccc2)n(C)c1=O
T/C endpoint: mean survival time, dose: 200.0 mg/kg/injection, schedule: Q01DX005 (ip), vehicle: saline with Tween-80
  survivor count: 0 of 6

## CC(C)=CBr
T/C endpoint: mean survival time, dose: 400.0 mg/kg/injection, schedule: Q04DX003 (ip), vehicle: acetone
  survivor count: 4 of 6

## C[N+](C)(C)c1ncnc2nc[nH]c12
T/C endpoint: mean survival time, dose: 200.0 mg/kg/injection, schedule: Q01DX009 (ip), vehicle: saline
  T/C: 129 and 140 % of control
T/C endpoint: mean survival time, dose: 400.0 mg/kg/injection, schedule: Q01DX009 (ip), vehicle: saline
  survivor count: 0 of 6

## CC(=O)/C(=C\c1ccc(Cl)c(Cl)c1)C(=O)CCN(C)C
T/C endpoint: median survival time, dose: 100.0 mg/kg/injection, schedule: Q01DX009 (ip), vehicle: saline
  T/C: 127 % of control [5 of 6 alive]
T/C endpoint: median survival time, dose: 200.0 mg/kg/injection, schedule: Q01DX009 (ip), vehicle: saline
  survivor count: 0 of 6

## CCC(CN(C)C)C(=O)c1ccccc1 (stereo not given)
T/C endpoint: mean survival time, dose: 100.0 mg/kg/injection, schedule: Q04DX002 (ip), vehicle: saline with Tween-80
  survivor count: 3 of 3
[12]
  survivor count: 0 of 3
[13]
  survivor count: 0 of 6

## O=C(CCl)c1cnc2ccccc2n1
T/C endpoint: mean survival time, dose: 40.0 mg/kg/injection, schedule: Q01DX001 (ip), vehicle: saline
  survivor count: 1 of 6
T/C endpoint: mean survival time, dose: 80.0 mg/kg/injection, schedule: Q01DX001 (ip), vehicle: saline
  survivor count: 0 of 6

## CC1(C)N=C(N)N=C(N)N1c1ccc(OCCNS(=O)(=O)c2cccc(S(=O)(=O)F)c2)c(Cl)c1
[7]
  T/C: 129 % of control
[1]
  T/C: 130 % of control
[3]
  survivor count: 0 of 6

## CCOC(=O)c1ccc(NC(=O)Nc2ccc(Nc3ccccc3)cc2)cc1
[11]
  survivor count: 6 of 6
[8]
  survivor count: 6 of 6
[12]
  survivor count: 6 of 6
[10]
  survivor count: 6 of 6

## CN1CCCC1CCNc1nc(-c2ccc(C(Cl)(Cl)Cl)cc2)nc(C(Cl)(Cl)Cl)n1 (stereo not given)
[2]
  survivor count: 5 of 6
[3]
  survivor count: 2 of 6

## CCCCn1cnc2c(=S)nc[nH]c21
T/C endpoint: mean survival time, dose: 100.0 mg/kg/injection, schedule: Q01DX009 (ip), vehicle: saline
  T/C: 125 % of control
T/C endpoint: mean survival time, dose: 128.0 mg/kg/injection, schedule: Q01DX009 (ip), vehicle: saline
  T/C: 126 % of control
T/C endpoint: median survival time, dose: 50.0 mg/kg/injection, schedule: Q01DX009 (ip), vehicle: saline with Tween-80
  T/C: 149 % of control
T/C endpoint: median survival time, dose: 400.0 mg/kg/injection, schedule: Q01DX009 (ip), vehicle: saline with Tween-80
  survivor count: 4 of 6

## Cc1nn(CCO)c(C)c1N=[N+]([O-])c1c(C)nn(CCO)c1C
[1]
  survivor count: 4 of 6
T/C endpoint: mean survival time, dose: 200.0 mg/kg/injection, schedule: Q04DX003 (ip), vehicle: Klucel (hydroxypropylcellulose) (HPC)
  survivor count: 0 of 3

## O=C(CCl)Nc1ccccc1Cl
T/C endpoint: mean survival time, dose: 400.0 mg/kg/injection, schedule: Q04DX003 (ip), vehicle: Klucel (hydroxypropylcellulose) (HPC)
  survivor count: 3 of 6

## CCC(C)[Se][Se]C(C)CC (stereo not given)
[9]
  survivor count: 6 of 6
[11]
  survivor count: 0 of 6

## CC1=NCCc2ccccc21
T/C endpoint: mean survival time, dose: 50.0 mg/kg/injection, schedule: Q04DX003 (ip), vehicle: saline
  survivor count: 0 of 6

## CCCCCCCCCCNC(=O)C[n+]1cccc(C(=O)N(C)C)c1
T/C endpoint: mean survival time, dose: 100.0 mg/kg/injection, schedule: Q04DX003 (ip), vehicle: saline
  survivor count: 0 of 6
T/C endpoint: mean survival time, dose: 200.0 mg/kg/injection, schedule: Q04DX003 (ip), vehicle: saline
  survivor count: 0 of 6
[13]
  survivor count: 0 of 6

## O=S(=O)(C(Br)CBr)C(Br)CBr (stereo not given)
[8]
  survivor count: 0 of 6
[10]
  survivor count: 0 of 6

## COC(=O)Nc1nc2ccc(SC)cc2c(=O)[nH]1
T/C endpoint: median survival time, dose: 400.0 mg/kg/injection, schedule: Q01DX009 (ip), vehicle: Klucel (hydroxypropylcellulose) (HPC)
  survivor count: 4 of 6

## N#CCC(O)(/C=C/c1ccccc1)c1ccccc1 (stereo not given)
[8]
  survivor count: 6 of 6

## CN(C)N=Nc1ccc(C(N)=O)cc1C(N)=O
T/C endpoint: mean survival time, dose: 150.0 mg/kg/injection, schedule: Q01DX009 (ip), vehicle: Klucel (hydroxypropylcellulose) (HPC)
  T/C: 139 and 148 % of control
